From article PMC10436584 come the findings set out here.

Sequences of proteins named here, by UniProt entry; tags and fusion partners are left off. A change or cut given only in a name is not applied to a line headed by its entry.
UniProt P97875: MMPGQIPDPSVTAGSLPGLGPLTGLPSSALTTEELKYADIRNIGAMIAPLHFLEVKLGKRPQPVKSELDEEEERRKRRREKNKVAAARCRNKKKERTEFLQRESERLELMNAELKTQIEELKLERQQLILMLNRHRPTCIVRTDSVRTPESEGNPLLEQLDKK

For at least one entry, the source does not settle the construct or the ends of the probe. For some of these results: At least one verdict was read from the data and is not stated in words by the source.

Common to all, as to assay: EMSA
For orientation: In EMSA bound probe runs differently from free probe, usually more slowly.

Series [1] deals with GST-AhR bHLH. The conditions noted are these: 5 ug GST fusion protein, 25 C, 30 min, 5% nondenaturing gel at 4 C, recombinant protein, label: 32P (T4 kinase).
The target in series [2] is GST-Jdp2 (UniProt P97875). Conditions: 5 ug GST fusion protein, 25 C, 30 min; 5% nondenaturing gel at 4 C; recombinant protein; protein details: GST; label: 32P (T4 kinase).
The subject of series [3] is GST-Nrf2. Conditions: 5 ug GST fusion protein, 25 C, 30 min; 5% nondenaturing gel at 4 C; recombinant protein; protein details: GST; label: 32P (T4 kinase).

For the sequence “CGGGCGGCAGCGTGTGTGTGCGCTCCCTT / TCAAAGGGAGCGCACACACACGCTGCCGC [AhR promoter DRE3 probe]”, the binding result is on record as “binds” in series [1] (with GST-Nrf2, AhR binding seemed to be increased, protein details: …); “binds” in series [2]; “binds” in series [3].
Regarding “TTTCCCACAGTGACTTTCCCAAGAAAGATG / TTCCATCTTTCTTGGGAAAGTCACTGTGGG [AhR promoter ARE1 probe]”, the binding result in series [1] (protein details: GST) and in series [2] was “binds” each time.
As to “TCGGTGCCCCACGCGTGTCCCGGAGAG / AGCCTCTCCGGGACACGCGTGGGGCAC [AhR promoter DRE2 probe]”, the binding result in series [2] and in series [3] was “binds” each time.
